Experimental data from paper PMC10758092.
These are yes or no findings as the source states them, for the method shown. Binding seen in cells or lysates may run through a third protein. Some binding calls cover weakened binding; strength is not graded here.

Amino acid sequences for entries named in this document (tags omitted).
UniProt Q86VP3: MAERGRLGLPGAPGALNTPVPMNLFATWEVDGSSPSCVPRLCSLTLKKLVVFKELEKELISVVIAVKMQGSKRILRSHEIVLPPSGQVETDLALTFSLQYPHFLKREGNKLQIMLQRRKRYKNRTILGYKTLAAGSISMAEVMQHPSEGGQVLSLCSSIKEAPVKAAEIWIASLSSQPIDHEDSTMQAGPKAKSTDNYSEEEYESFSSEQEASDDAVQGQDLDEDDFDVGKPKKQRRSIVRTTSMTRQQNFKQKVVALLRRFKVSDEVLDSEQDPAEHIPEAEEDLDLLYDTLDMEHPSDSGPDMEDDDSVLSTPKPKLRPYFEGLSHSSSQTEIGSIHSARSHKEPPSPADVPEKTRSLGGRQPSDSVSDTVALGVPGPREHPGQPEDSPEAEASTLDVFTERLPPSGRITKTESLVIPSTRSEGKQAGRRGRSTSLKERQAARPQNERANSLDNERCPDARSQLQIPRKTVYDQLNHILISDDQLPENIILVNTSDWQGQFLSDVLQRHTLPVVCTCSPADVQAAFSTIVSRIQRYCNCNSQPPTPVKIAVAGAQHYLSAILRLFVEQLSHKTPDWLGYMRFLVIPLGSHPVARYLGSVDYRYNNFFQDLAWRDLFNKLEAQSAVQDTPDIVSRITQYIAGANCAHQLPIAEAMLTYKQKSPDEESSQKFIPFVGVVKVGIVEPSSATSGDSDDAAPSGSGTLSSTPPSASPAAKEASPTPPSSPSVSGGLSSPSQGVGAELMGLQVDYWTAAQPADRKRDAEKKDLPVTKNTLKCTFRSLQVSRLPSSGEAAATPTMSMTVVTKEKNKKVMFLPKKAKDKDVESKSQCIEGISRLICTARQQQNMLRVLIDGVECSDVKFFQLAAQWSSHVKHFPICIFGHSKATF
UniProt P28482: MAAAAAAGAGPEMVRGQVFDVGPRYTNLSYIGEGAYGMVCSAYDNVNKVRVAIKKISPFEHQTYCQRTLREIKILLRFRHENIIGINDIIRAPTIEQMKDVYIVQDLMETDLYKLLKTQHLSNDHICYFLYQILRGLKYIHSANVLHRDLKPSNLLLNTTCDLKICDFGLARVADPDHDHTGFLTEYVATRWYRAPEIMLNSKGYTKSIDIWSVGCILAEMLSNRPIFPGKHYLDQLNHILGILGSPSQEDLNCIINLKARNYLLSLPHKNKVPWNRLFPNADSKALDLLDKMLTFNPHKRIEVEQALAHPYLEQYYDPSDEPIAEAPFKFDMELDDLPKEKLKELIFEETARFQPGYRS

Molecular target: phosphofurin acidic cluster sorting protein 2 (human (endogenous in HK-2)) (UniProt Q86VP3)
Experiment: co-IP; lysate of HK-2 cells stably expressing MAPK1, low glucose; anti-PACS-2 antibody overnight at 4°C, Protein A/G mag beads 5 h at 4°C; Western blot for MAPK1

Substance: mitogen-activated protein kinase 1 (from UniProt P28482 1-360) (enzyme)
- binding: binds
